Some of the results follow. Single values are uncertain here, since repeats match poorly.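 Free-swimming zebrafish larvae were assessed for O-bend response probability to dark flashes (naive: first five; training: remaining flashes across four 60-flash blocks; test: later 60-flash block) and for OMR turning toward alternating leftward/rightward LED motion. Six treated larvae were compared against sixty 0.1% DMSO controls; hits required |SSMD|≥2.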

One experiment relates to Danio rerio larvae (5 dpf, TLF). Put plainly: OMR-Perf (SSMD vs DMSO vehicle); higher = higher than vehicle (e.g. higher dark-flash O-bend response probability, or better optomotor performance). The note with it: 10 µM; pre-incubation: 30-90 min.
In the case of `CC[C@H](/C=C/[C@@H](C)[C@@H]1CC[C@H]2[C@@H]3CC=C4C[C@@H](O)CC[C@]4(C)[C@@H]3CC[C@@]21C)C(C)C` [Stigmasterol], the OMR-Perf came to 0.163.
`Nc1nnc(-c2cccc(Cl)c2Cl)c(N)n1` [Lamotrigine] came in with an OMR-Perf of 0.0251.
For `Cc1ccccc1C(OCCN(C)C)c1ccccc1.O=C(O)CC(O)(CC(=O)O)C(=O)O` (configuration not stated) [Orphenadrine Citrate], the OMR-Perf was found to be 0.469.
The compound `Cc1nn(-c2ccccc2)c(C)c1/C=N/N1CCN(Cc2ccccc2)CC1` returned an OMR-Perf of -0.622.
Take `CN[C@H](CC(C)C)C(=O)N[C@H]1C(=O)N[C@@H](CC(N)=O)C(=O)N[C@H]2C(=O)N[C@H]3C(=O)N[C@@H](C(=O)N[C@H](C(=O)O)c4cc(O)cc(O)c4-c4cc3ccc4O)[C@H](O)c3ccc(c(Cl)c3)Oc3cc2cc(c3O[C@H]2O[C@H](CO)[C@@H](O)[C@H](O)[C@H]2O[C@H]2C[C@@](C)(N)[C@H](O)[C@H](C)O2)Oc2ccc(cc2Cl)[C@H]1O.Cl` [Vancomycin HCl (Vancocin)]: the OMR-Perf was determined as 0.597.
Compound `CCCCc1nc2cc(/C=C/C(=O)NO)ccc2n1CCN(CC)CC` [Pracinostat (SB939)] registered an OMR-Perf of -0.174.
Compound `Cl.Cl.Fc1cc(-c2cccc3ncc(-c4cnn(C5CCNCC5)c4)nc23)cc(F)c1CN1CCOCC1` yielded an OMR-Perf of -0.732.
Still for that read-out and setting: with `CC[C@@H]([C@H](C)O)n1ncn(-c2ccc(N3CCN(c4ccc(OC[C@@H]5CO[C@@](Cn6cncn6)(c6ccc(F)cc6F)C5)cc4)CC3)cc2)c1=O` [Posaconazole] the figure was 0.112.

The test system is the same in a further experiment. Put plainly: Prob-Test (SSMD vs DMSO vehicle); higher = higher than vehicle (e.g. higher dark-flash O-bend response probability, or better optomotor performance). To be noted: 10 µM; pre-incubation: 30-90 min.
`COc1cc(OC2CCN(C)CC2)ccc1Nc1ncc2c(n1)n(C1CCCC1)c(=O)n2C` showed a Prob-Test of -0.18.
On to `CC(C)(C)N.CCCC(N[C@@H](C)C(=O)N1[C@@H](C(=O)O)C[C@@H]2CCCC[C@@H]21)C(=O)OCC` (some centres not stated) [Perindopril Erbumine (Aceon)], for which the Prob-Test was determined as 0.0526.
The same measure, in the same setting: the figure for `CCOC(=O)C1OC1C(=O)NC(CC(C)C)C(=O)NCCC(C)C` (configuration not stated) [Aloxistatin] is -0.262.
The compound `NCCc1c[nH]cn1.O=P(=O)OO.O=P(=O)OO.[HH].[HH]` [Histamine Phosphate] had a Prob-Test of 0.447.
`NC(=O)c1cnccn1` [Pyrazinamide] had a Prob-Test of 0.16.
`Cc1c(NC(=O)OC[C@@H]2COCCN2)cn2ncnc(Nc3ccc4c(cnn4Cc4cccc(F)c4)c3)c12.Cl` returned a Prob-Test of -0.109.
In turn, `CCCCCCCCCCCCCCCCCCCCCCO` [Docosanol (Abreva)] came in with a Prob-Test of -0.254.
Compound `Cc1cc(/C=C/C#N)cc(C)c1Nc1ccnc(Nc2ccc(C#N)cc2)n1` [Rilpivirine] registered a Prob-Test of -1.79.
Take `Cn1cnc([N+](=O)[O-])c1Sc1ncnc2nc[nH]c12` [Azathioprine]: the Prob-Test is -0.225.
On the same count and under the same terms, the figure for `Nc1nccs1` [Aminothiazole] is 0.0116; for `COc1ccc2[nH]c(S(=O)Cc3ncc(C)c(OC)c3C)nc2c1` (configuration not stated) [Omeprazole] it is -0.383; for `Oc1cccc(-c2nc(N3CCOCC3)c3oc4ncccc4c3n2)c1` it is 0.78.
Consider `CO[C@H]1C[C@@H]2CC[C@@H](C)[C@@](O)(O2)C(=O)C(=O)N2CCCC[C@H]2C(=O)O[C@H]([C@H](C)C[C@@H]2CC[C@@H](OCCO)[C@H](OC)C2)CC(=O)[C@H](C)/C=C(\C)[C@@H](O)[C@@H](OC)C(=O)[C@H](C)C[C@H](C)/C=C/C=C/C=C/1C` [Everolimus (RAD001)], for which the Prob-Test was determined as 0.37.
`COC(=O)N1CCN(Cc2cccc(NC(=O)Nc3ccc(C)nc3)c2F)CC1` came in with a Prob-Test of 0.396.
`COc1cccc(N(C)C(=S)Oc2ccc3c(c2)CCCC3)n1` [Liranaftate] registered a Prob-Test of -1.61.
Same read-out and setting: with `CN1C[C@@H]2c3ccccc3Oc3ccc(Cl)cc3[C@H]2C1.O=C(O)/C=C\C(=O)O` [Asenapine] the figure was -2.31; with `COc1cccc2cc(-c3nc([C@H]4CC[C@H](C(=O)O)CC4)n4ncnc(N)c34)[nH]c12`, -0.496; with `CCN(CC)C(=O)[C@]1(c2ccccc2)C[C@@H]1CN.Cl` [Milnacipran HCl], -0.0307.
`N#CC(=Cc1ccc(-c2cc(Cl)ccc2Cl)o1)C(=O)Nc1cccc2ncccc12` came in with a Prob-Test of -0.865.

These data come from the supplement of paper PMC10727501.
